This note sets out measurements from ChEMBL document CHEMBL4303122, “Identification of potential treatments for COVID-19 through artificial intelligence-enabled phenomic analysis of human cells infected with SARS-CoV-2” (2020).

Over roughly 1,600 compounds, “Hit score” has its median near 0.13; the highest 2% begin near 0.46. This is one part of the list.

The test system of this assay is SARS-CoV-2. As to the kind of experiment: Antiviral activity against SARS-CoV-2 (USA-WA1/2020 strain) measured by imaging in HRCE cells at MOI 0.4 after 96 hrs (reported as hit score from 0-1 for on-disease vs off-disease activity: scores >0.6 considered hits). It is filed as functional, Homo sapiens.
Turning to `C[C@]12CCC3=C4CCC(=O)C=C4CC[C@H]3[C@@H]1CC[C@@]2(O)CC#N` [DIENOGEST], the Hit score was 0.1799. In turn, `Cc1cc(N2CCN([C@@H]3CN[C@H](C(=O)N4CCSC4)C3)CC2)n(-c2ccccc2)n1` [TENELIGLIPTIN] gave a Hit score of 0.3043.

Regarding `Cc1cccc(-c2nn(C(=S)Nc3ccccc3)cc2-c2ccnc3ccccc23)n1`, the Hit score is on record as -0.5516. With `CCN1CCN(Cc2ccc(Nc3ncc(F)c(-c4cc(F)c5nc(C)n(C(C)C)c5c4)n3)nc2)CC1` [ABEMACICLIB] the figure was 0.0735; with `Nc1nc2[nH]cc(CCc3ccc(C(=O)N[C@@H](CCC(=O)O)C(=O)O)cc3)c2c(=O)[nH]1` [PEMETREXED], 0.2782. The figure for `CC(C)(C)NC[C@H](O)COc1ccccc1C1CCCC1` [PENBUTOLOL] is 0.4905; for `CC[C@H]1[C@@H]2C[C@H]3[C@@H]4N(C)c5ccccc5[C@]45C[C@@H]([C@@H]2[C@H]5O)N3[C@@H]1O` [AJMALINE] it is 0.06447; for `O=C(OCCOCCO)c1ccccc1Nc1cccc(C(F)(F)F)c1` [ETOFENAMATE] it is 0.02454. Regarding `O=C(O)c1cc2ccccc2c(Cc2c(O)c(C(=O)O)cc3ccccc23)c1O` [PAMOIC ACID], the Hit score was found to be 0.0734.

In the case of `Cc1cnc(C(=O)O)c[n+]1[O-]` [ACIPIMOX], the Hit score was 0.138. With `C=C1/C(=C\C=C2/CCC[C@]3(C)[C@@H]([C@H](C)CC[C@@H](O)C(C)C)CC[C@@H]23)C[C@@H](O)C[C@@H]1O` [TACALCITOL] the figure was 0.4469. With `O=c1c(O)c(-c2ccc(O)c(O)c2)oc2cc(O)cc(O)c12` [QUERCETIN] the figure was 0.4241; with `CCN1CCN(C(=O)N[C@@H](C(=O)N[C@@H]2C(=O)N3C(C(=O)O)=C(CSc4nnnn4C)CS[C@H]23)c2ccc(O)cc2)C(=O)C1=O` [CEFOPERAZONE], 0.1928; with `Cc1[nH]c2ccccc2c1CCNCc1ccc(/C=C/C(=O)NO)cc1` [PANOBINOSTAT], -0.1816. With `CC(C)[N+]1(C)[C@@H]2CC[C@H]1C[C@@H](OC(=O)C(CO)c1ccccc1)C2` (stereo partly drawn) [IPRATROPIUM] the figure was 0.06429; with `COc1ccnc(C[S+]([O-])c2nc3cc(OC(F)F)ccc3[nH]2)c1OC` (stereo not drawn) [PANTOPRAZOLE], 0.1062.

`Nc1ccn([C@@H]2O[C@H](CO)[C@@H](O)[C@@H]2O)c(=O)n1` [CYTARABINE] came in with a Hit score of -0.0665. For `Nc1ccc(S(=O)(=O)Nc2ccccn2)cc1` [SULFAPYRIDINE], the Hit score turned out to be 0.1383.

In turn, `C[N+]1([O-])CCN(C2=Nc3cc(Cl)ccc3Nc3ccccc32)CC1` showed a Hit score of 0.08141. `O=c1ccc2ccccc2o1` [COUMARIN] came in with a Hit score of 0.2302. With `CCCCOc1cc(CC2CNC(=O)N2)ccc1OC` (stereo not drawn) [RO-201724] the figure was 0.2283; with `C/C(=C(/CCOC(=O)C(C)C)SS/C(CCOC(=O)C(C)C)=C(\C)N(C=O)Cc1cnc(C)nc1N)N(C=O)Cc1cnc(C)nc1N` [SULBUTIAMINE], 0.1859; with `CCOC(=O)c1c(CSc2ccccc2)n(C)c2cc(Br)c(O)c(CN(C)C)c12` [UMIFENOVIR], 0.02898. With `C#C[C@]1(O)CC[C@H]2[C@@H]3CCC4=CC(=O)CC[C@@H]4[C@H]3CC[C@@]21C` [NORETHINDRONE] the figure was 0.1388. The figure for `CC(C(=O)O)c1ccc2c(c1)CC(=O)c1ccccc1S2` (stereo not drawn) [ZALTOPROFEN] is 0.1748; for `Cc1nc(-c2ccc(OCC(C)C)c(C#N)c2)sc1C(=O)O` [FEBUXOSTAT] it is 0.1568.

On to `CC(COc1ccccc1)NC(C)C(O)c1ccc(O)cc1` (stereo not drawn) [ISOXSUPRINE], for which the Hit score was found to be 0.0468. With `CNC(=O)Oc1ccc2c(c1)[C@]1(C)CCN(C)[C@@H]1N2C` [PHYSOSTIGMINE] the figure was 0.353; with `CC[C@@H](C(=O)[C@@H](C)[C@@H](O)[C@H](C)[C@@H]1O[C@@H]([C@@H](CC)C(=O)O)CC[C@@H]1C)[C@H]1O[C@]2(C=C[C@@H](O)[C@]3(CC[C@@](C)([C@H]4CC[C@](O)(CC)[C@H](C)O4)O3)O2)[C@H](C)C[C@@H]1C` [SALINOMYCIN], 0.357. The compound `CCOC(=O)C1=C(COCCN)NC(C)=C(C(=O)OC)[C@@H]1c1ccccc1Cl` [LEVAMLODIPINE] registered a Hit score of -0.04073. The figure for `CCOC(=O)NNc1nncc2ccccc12` [TODRALAZINE] is 0.1079; for `CCCCN1CCCCC1C(=O)Nc1c(C)cccc1C` (stereo not drawn) [BUPIVACAINE] it is 0.1503.

`CC(C)[C@@]1(NC(=O)[C@@H]2C[C@@H]3c4cccc5[nH]cc(c45)C[C@H]3N(C)C2)O[C@@]2(O)[C@@H]3CCCN3C(=O)[C@H](Cc3ccccc3)N2C1=O.CS(=O)(=O)O` [DIHYDROERGOCRISTINE MESYLATE] gave a Hit score of 0.1553.

Regarding `NS(=O)(=O)c1cc(-c2nnn[nH]2)c(NCc2cccs2)cc1Cl` [AZOSEMIDE], the Hit score was 0.09549.

The compound `COc1cc(NC(C)CCCN)c2ncccc2c1` (stereo not drawn) [PRIMAQUINE] gave a Hit score of 0.08859. With `CCCCC1(COC(=O)CCC(=O)O)C(=O)N(c2ccccc2)N(c2ccccc2)C1=O` [SUXIBUZONE] the figure was 0.0562. The figure for `O=c1[nH]c(=O)n([C@H]2C[C@H](O)[C@@H](CO)O2)cc1Br` [BROXURIDINE] is 0.06259. With `CCn1cc(C(=O)O)c(=O)c2ccc(-c3ccncc3)cc21` [ROSOXACIN] the figure was 0.1616. Take `NC(N)=Nc1nc(CSCC/C(N)=N/S(N)(=O)=O)cs1` [FAMOTIDINE]: the Hit score is 0.1617.

With `Cc1cc(-c2ccccc2)nnc1NCCN1CCOCC1` [MINAPRINE], the Hit score is given as 0.06763.

`CC(CN(C)C)CN1c2ccccc2Sc2ccc(C#N)cc21` (stereo not drawn) [CYAMEMAZINE]: the Hit score worked out at 0.06709. Consider `CN(Cc1cnc2nc(N)nc(N)c2n1)c1ccc(C(=O)N[C@@H](CCC(=O)O)C(=O)O)cc1` [METHOTREXATE], for which the Hit score worked out at 0.1078. `CCN(CC)CCNc1ccc(CO)c2sc3ccccc3c(=O)c12` [HYCANTHONE] had a Hit score of 0.04803.
